PubChem BioAssay AID1224826, NIAID – 2016

Test: 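Genes that change LPS-induced Tnf promoter activity in mouse macrophages when knocked down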 (primary screen)
Cell system: RAW264.7 G9 macrophages from mouse bearing reporters for p65 (GFP) and the Tnf promoter (mCherry)
Knock-down reagent: siRNA pool against mouse genes, 100 nM
Duration: 16 h of LPS stimulation, after 2 days of siRNA transfection
Conditions: bacterial lipopolysaccharide (Salmonella minnesota R595), 10 ng/ml
Measured: 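Imaged Tnf reporter mCherry in nuclei, minus background, normalised per plate to the median and expressed as robust z-scores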
Reading the numbers: Tnf reporter robust z-score: higher = stronger Tnf promoter reporter signal after LPS
Active means: 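Called active when robust z-score is at most -1.3, matching the median of the Tlr4 knock-down control, or over 3; control wells and wells with under 50 cells never active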
Calls: active = Tnf reporter clearly lowered or raised; inactive = no clear change in Tnf reporter
The deposit covers about 17,000 reagents; this is a part drawn at random. Over the whole deposit, about 1,110 (6.6%) are marked active. 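Active means lowered or raised reporter signal; replicate intensities are raw and not normalised per plate.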 Unmarked entries are inactive. Not all columns of the deposit are shown. No sequences are given here.

Knock-down of Csprs resulted in: Tnf reporter robust z-score 0.94; fewer than 50 cells in well enough cells in well.
After knock-down of Nae1, the screen gave Tnf reporter robust z-score 0.45; fewer than 50 cells in well enough cells in well.
For Pank1, the values are fewer than 50 cells in well fewer than 50 cells per well; well left out of calls.
For Slc35a2, the entry reads fewer than 50 cells in well fewer than 50 cells per well; well left out of calls.
Depletion of Gdf6 came out at: Tnf reporter robust z-score 0.7; fewer than 50 cells in well enough cells in well.
After knock-down of Rbm15, the screen gave Tnf reporter robust z-score 0.1; fewer than 50 cells in well enough cells in well.
Knock-down of Ttc36 gave: Tnf reporter robust z-score -0.54; fewer than 50 cells in well enough cells in well.
With knock-down of Trmt1, the record shows Tnf reporter robust z-score -1.49 (active); fewer than 50 cells in well enough cells in well.
Zfp385c showed Tnf reporter robust z-score -0.91; fewer than 50 cells in well enough cells in well.
Fbxo21 scored Tnf reporter robust z-score -1.56 (active); fewer than 50 cells in well enough cells in well.
Arpc3 showed Tnf reporter robust z-score 1.47; fewer than 50 cells in well enough cells in well.
For Ublcp1, the values are Tnf reporter robust z-score 0.81; fewer than 50 cells in well enough cells in well.

Already shown: 2 of the entries above.
Zfp385c | Tnf reporter robust z-score = -0.91; fewer than 50 cells in well = enough cells in well
Fbxo21 | Tnf reporter robust z-score = -1.56 (active); fewer than 50 cells in well = enough cells in well

The results go on.
Silencing of Or5d39 came out at: Tnf reporter robust z-score -0.14; fewer than 50 cells in well enough cells in well.
After knock-down of D16Ertd472e, the record shows Tnf reporter robust z-score -0.71; fewer than 50 cells in well enough cells in well.
Depletion of Slc38a3 resulted in: fewer than 50 cells in well fewer than 50 cells per well; well left out of calls.
After knock-down of Cobll1 the results were Tnf reporter robust z-score -0.51; fewer than 50 cells in well enough cells in well.
Slc52a2 gave Tnf reporter robust z-score -0.16; fewer than 50 cells in well enough cells in well.
Silencing of Prss46 came out at: Tnf reporter robust z-score 1.69; fewer than 50 cells in well enough cells in well.
With knock-down of Rhob the results were Tnf reporter robust z-score 0.2; fewer than 50 cells in well enough cells in well.
For Atp2b3 the deposit lists Tnf reporter robust z-score -0.86; fewer than 50 cells in well enough cells in well.
Depletion of Or4d1 came out at: Tnf reporter robust z-score 0.41; fewer than 50 cells in well enough cells in well.
